The results in this text go back to paper PMC4388601.

These are yes or no findings as the source states them, for the method shown. In cells and extracts the contact can be indirect. For part of these data: A result given as binding can be weak or reduced; the word gives no strength. For part of these data: Sequences can lack the tags named with a protein.

Test [1] deals with Karst YFP knock-in (Drosophila (endogenous in embryos)). The test is described as follows: co-IP; Lysates of Karst YFP knock-in embryos (Wiso embryos also collected); GFP Trap-M beads; 10 mM Tris pH 7.5, 150 mM NaCl, 0.5% NP-40, 0.5 mM EDTA; blots with anti-GFP, anti-Merlin, anti-α-Spectrin, anti-Kibra.
The target of test [2] is Karst isoform A; aa 1904-2632 (Drosophila). The test is described as follows: co-IP; Drosophila S2 cell extracts; FLAG-tagged proteins purified on anti-FLAG M2 agarose and eluted with FLAG peptide in lysis buffer (50 mM Tris pH 7.5, 150 mM NaCl, 1% Triton X-100, 10% glycerol, 1 mM EDTA); blots with anti-FLAG, anti-V5, anti-α-Spectrin.
Test [3] has as its target FLAG-tagged N-terminal region of Karst/βH-Spectrin (Karst isoform A; aa 1-1632) (Drosophila). The description is as above.
For test [4], the target named is Karst isoform A; aa 2594-4097 (Drosophila). Described as above.
Test [5] has as its target Karst isoform A; aa 1633-1903 (Drosophila). The description is as above.

B1: Kibra (endogenous, embryos) (protein, UniProt Q9VFG8 1-1288)
chain: MPNLQQTASQSQHHLHPHHLRPQQQQQQHHHHHQQQQQQQHTHHQQQQQHHSDFPLPDGWDIAKDFDGKTYYIDHINKKTTWLDPRDCYTKPQTFEDCVGDELPMGWEESYDPNIGPYYINHLAQSTQLEDPRQEWKTVQEQMLSDYLSAAQDQLENKREMFDVKQQRLLWAQEEYNHLKLAASRSSLCSSSSSMSRHDPELLRADLMLARERVHQLKQELTHITNDISYTERGMNTLYSVGEKINARENGCYDIAEVHAIREEMLKVHKSLVSGEKVREELMRSLVQIKNELGRQQISEENSDLASPFDRVCVASQTDLCGSSGENLNGGARFAEMAKTKWQYAEWRKHIKKLQQQLADHVERIEPGQLESDKDRILLIQEKEKLLNDLNSISLKSRSEEEKRVIHQTRHKLEEDLKEAYEANNTCVANRLRFHEEKQLLLDKLQEALKSTKLLEERLKSFSSESTFSISSGSSLGSLSTASSKSALSFTDIYIDPFAVDSPIDVVDLRRRSQRLFQQHQQQRLHPVHPVLQQQQSAEVTLSPRSSLSMETPPASPMKYNAGADQTPQALKEEPTYANALPAPPAYTAPPPVPISGVRARPYDLDSTVLDCMMLEAKLQKLNMGTPLNLAVAPLSPISEKPSLLDLPQEMLSRSSSTSNTRSVSAAVSNESVAGDSGVFEASRAHLPRKELAQVQIGLKYLKQEGVLVVSLERANNLLALWTASADNSQVYLRAALLPNSLTSIRTKALGDFQKPVFNDTFAVPITLDKLLTKSLQVTVVTMTGQKEEIIGTVQISMAEFNPEDSTLKWYNVLSSKFIPSFESLDIPSTSAAAAAAAVAASNAPNPGNNREESSDESTITSSQTSTLTRNQAPCMELQEQMAAELLGLGPLNEPECSDDDDDDEEEELDDKQLVSDVGLMNSSSMLHAYLQNMKQEFADKETNTDRAYLPEKSRGQSQLMDDRPVKRSQTFTPSEAFSKNRYNCRLNRSDSDSAMHCGVAPHTFQRGAAERRSLRFHSKAPKSVTKLHHTHIPRTSLDLELDLQAQHSKLYFLNDQIAKLQNLKEVLQKACENKDPLVAAWAIENEEFQRLVARADPAKCPEERQLQKLLMKTAKEIHKLRKTKVPKGCPDLVSFKEKITFFTRKGLSVPELPSEFTLPEANPIEEEEEEEDENEFYNSAETAIAINTALVASSNRNKNLSEHPHRATSGAVPKIPAPVVTPAATPAATPAATPAATSAATPAATPVVSPAAQPDAKPADAPIPVASNDAEQQRFDYVVDRNYGVEV
Take B1: the binding result in test [1] was “binds”.

B2: V5-tagged Expanded (protein, UniProt Q07436 1-1427)
chain: MRAFCTVSAPLEVCASSAEQLSPGSRFLALRLLGQQQPKTLYFLVDAKSRVREVYTQTCLHFATQGMLDTELFGLAVLIDGEYMFADPESKLSKYGPKSWRSSHTHGLDANGRPLLELHFRVQFYIESPFMLKDETSRHNYYLQLRHNILQRDLPREQAEQALVFLAGLALQADLGDAPPGTSNSKDDSGEETSASPSNGGRGLSATTTLPKISKRANERMLRLSTYVASTSKRETIPLPPSLPPNGADYYRIEDYLPSGLHTPWARSAMRACHREHLGMATAEAELLYIQQACSLHETINAHTYRMRLAKSEQGSGSAWFVVYAKGIKILGGESTNSSSNPETTTFLWPNITKLSFERKKFEIRSGESRITLYAASDEKNKLLLTLCKDTHQWSMKLAARLKEVSKREEEEAAESQRLHASYACSRSLLLPYKSKNEQRISVISSTSSNTTSGIVSDRVHSEDELEIMINTPPAPLAAPSTESLALAHLLDRPSVSRQTSSVGQMSLKDLEEQLAALSVRPQDASSNGATIVTNSSVQRNSMGTTANDSSTATDSPSSQHNIGSQCSSTCSTVVVTSPVNGAGASSSGAPIPVHSTSSSLELGFSHTAQNSALSETSPDDFLSTSAREETESVSGASGVYTLAHGAPPTETSGVYTMHSSELTGQSSEIAESEKSSHYGMFQPQKLEETHVQHSDSVDGKKKEDFRPRSDSNVSTGSSFRGDGSDPTDNKHSLLSAEELTNLIVGRGTYPSRKTVSSSLHSDCDYVTLPLGDQGEEEVDQPPAPPPPYSARHEKTGLCGPPIAKPIPKPIAVVAPKPDSPPCSPPVPPAPIPAPPPAIRRRDPPPYSISSKPRPTSLISVSSSAHPAPSAAGSMSSLKSEEVTARFITTRPQISILKAHTSLIPDGAKPSYAAPHHCSSVASSNGSVCSHQLSQQSLHNSNYAGGSQASLHHHHVPSHHRHSGSAAIGIVPYGLHKSTASLHHQQSCVLLPVIKPRQFLAPPPPSLPRQPPPPPPPNHPHLASHLYEREMARKQLELYQQQLYSDVDYVIYPIQDPAVSQQEYLDAKQGSLLAAMAQAAPPPPHHPYLAMQVSPAIYRSTPYLPLTLSTHSRYASTQNLSDTYVQLPGPGYSPLYSPSMASLCSSYEPPPPPPLHPAALAAAAAAGAGSSSSSMFARSRSDDNILNSLDLLPKGKRLPPPPPPPYVNRRLKKPPMPAPSEKPPPIPSKPIPSRMSPIPPRKPPTLNPHHANSPLTKTSSGAQWAGERPRPDLGLGLGLNRGNNSILAQLQASMVAQSHAQAQAQALDIALLREKSKHLDLPLISALCNDRSLLKQTKVVINPKTGQEMPTSSAQPSGATTNGVANSSAGAGTLSKARKGSTVSHRHPQDKLPPLPVQQLAEANNYVIDPAVMMKQQQQQQQHNKTS
As for B2, the binding result in test [2] is given as “no binding”; in test [3], “binds”; in test [4], “no binding”; in test [5], “no binding”.

B3: Merlin (endogenous, embryos) (protein, UniProt Q24564 1-635)
chain: MSPFGSKKNRSLSVRVSTFDSELEFKLEPRASGQDLFDLVCRTIGLRESWYFGLQYVDTRSNVSWLKMEKRVRDQRVELHASNNVYVFSFYAKFFPENVSEELIQEITQHLFFLQVKQSILSMDIYCRPEASVLLASYAVHVQYGPYDYETYKDGMLAGGELLPKGVTDQYQMTPEMWEERIKTWYMDHEPMTRDEVEMEYLKIAQDLDMYGVNYFPITNKNKTKLWLGVTSVGLNIYDERDKLTPKTTFQWNEIRHVSFDDKKFTIRLVDAKVSNFIFYSQDLHINKMILDLCKGNHDLYMRRRKPDTMEIQQMKAQAKEEKQRRQIERKKFIREKKLREKAEHERYELEKSMEHLQNEMRMANDALRRSEETKELYFEKSRVNEEQMQLTECKANHFKTEMDRLRERQMKIEREKHDLEKKIRDADFYVHQLTVENDKREAETEKLRKELICAKMAEREATARLLEFLNSGRKSSTDSLLTASSVSHAANTASSMAAISTPSLITSSSTNDLETAGGAELTTHSSHYLVQGDNSSGISDDFEPKEFILTDNEMEQITNEMERNHLDYLRNSKQVQSQLQTLRSEIAPHKIEENQSNLDILSEAQIKAGENKYSTLKKLKSGSTKARVAFFEEL
B3: the binding entry in test [1] is given as “binds”.
